We go through 59 compounds from PubChem BioAssay AID2685 (National Center for Advancing Translational Sciences (NCATS), 2010).

The structures appear in SMILES notation. The list shows a part of the results. These are further read-outs of the screen, such as a control signal, another cell line or another target. No call is given for them. Most of these compounds were active or inconclusive in the main read-out, so they are no random draw. Words in brackets tell the shape of the fitted curve; partial curves, single points and poor fits give uncertain potencies.

This assay is described as follows: qHTS Assay for Lipid Storage Modulators in Drosophila S3 Cells.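 On cell number change: cells counted by Cell Tracker Red CMTPX staining in the red channel.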 The following applies: BODIPY lipid droplet fluorescence, 18-24 h; for cell number change: measured here: cell count max response, cells fed with added oleic acid. The method in brief: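 Drosophila S3 cells got compounds at several concentrations plus oleic acid (400 uM solution). Laser-scanning cytometry with 488 nm excitation read lipid droplets at 500-530 nm and cells at 575-640 nm. Percent activity was relative to 20 uM Triacsin C.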
On the technique in general: qHTS replaces the single test concentration by a dilution series.

Where [1] appears, read: measured here: lipid fluorescence (Fed channel) AC50, cells fed with added oleic acid.
[2] abbreviates: measured here: cell number channel AC50, cells fed with added oleic acid.

As for `Cc1nnc2ccc(-c3ccc(NC(=O)c4ccc(Cl)nc4)cc3)nn12`, the cell number change was -9.34%. The AC50 under setting [1] was 0.0517 µM [falling, full curve, poor fit].

As for `CCOC(=O)c1c(CN2CCN(Cc3ccccc3)CC2)n(C)c2cc(Br)c(OC)cc12`, the cell number change is 90.6%. Further, the AC50 under setting [2] was 0.517 µM [rising, full curve, poor fit].

Consider `O=C(CSc1ncnc2nc[nH]c12)NCCc1ccccc1`, for which the cell number change was -22.5%. Moreover, the AC50 under setting [1] is 0.651 µM [falling, full curve, poor fit].

For the compound `C=C(C)Cn1c(=O)c2c(nc3n2CCN3c2cccc(Cl)c2C)n(C)c1=O`, the cell number change is -28.5%.

On to `CCOC(=O)N1CCN(C(=O)c2ccc(NS(=O)(=O)c3ccc(C)cc3)cc2)CC1`, for which, under setting [1], the half-maximal activity concentration (AC50) is 0.103 µM [falling, full curve, poor fit].

With `Cc1ccc(Cn2nnnc2CN2CCC(NC(=O)C(C)(C)C)CC2)cc1`, the cell number change is -46.7%. Also, the AC50 under setting [2] is 29.1 µM [falling, single point]. Moreover, the AC50 under setting [1] was 20.6 µM [falling, single point].

On to `CCN(Cc1ccncc1)C(=O)c1cc(COc2ccc(F)cc2Cl)on1`, for which the cell number change is 10.8%.

For `CCn1c(=O)c2sccc2n(CC(=O)NC2CCCC2)c1=O`, the cell number change is 2.08%. For the same compound, under setting [1], the AC50 was 0.58 µM [falling, partial curve, poor fit].

Consider `CC(C)CN(C(=O)CN1C(=O)C2CCCCC2C1=O)c1c(N)n(Cc2ccccc2)c(=O)[nH]c1=O` (stereo not given), for which the cell number change was -3.76%. The AC50 under setting [1] is 1.64 µM [falling, partial curve].

As for `NS(=O)(=O)c1ccc(CCNC(=O)COC(=O)/C=C/c2ccccc2Cl)cc1`, the cell number change was -15.7%. The AC50 under setting [1] was 0.0291 µM [falling, full curve, poor fit].

Turning to `CC(OC(=O)C1COc2ccccc2O1)C(=O)N(C)c1ccccc1` (stereo not given), the cell number change was -10.3%. Moreover, the AC50 under setting [1] was 0.291 µM [falling, full curve, poor fit].

As to `Cc1cccc(C)c1NC(=O)c1cn(-c2ccccc2)nc1-c1ccccc1`, the cell number change is 19.6%. Moreover, under setting [2], the AC50 is 0.411 µM [rising, full curve, poor fit]. Besides, under setting [1], the AC50 was 2.06 µM [rising, full curve].

As to `Cc1cc(C(=O)OCC(=O)NC2CC2)c2ccccc2n1`, the cell number change is -14.2%. For the same compound, the AC50 under setting [1] was 0.731 µM [falling, full curve].

Take `CCn1ccnc1C(O)c1ccc(N(C)C)cc1` (stereo not given): the cell number change turned out to be 6.9%. For the same compound, under setting [1], the AC50 was 6.51 µM [falling, single point].

For `CCCCn1cnc2c(cnn2-c2ccc(F)cc2)c1=O`, the cell number change is -30.7%. Also, the AC50 under setting [2] was 32.6 µM [falling, single point].

As to `COc1cc2c(cc1OC)C(C)N(C(=O)C1=NN(c3cccc(C)c3)C(=O)CC1)CC2` (stereo not given), the cell number change came to 13.8%. The AC50 under setting [1] is 0.206 µM [rising, full curve].

Consider `COCCNC(=O)Cn1c(=O)n(CCCCCC(=O)NCc2ccc3c(c2)OCO3)c(=O)c2sccc21`, for which the cell number change was 38%. In addition, under setting [2], the AC50 is 3.26 µM [rising, full curve, poor fit]. Under setting [1], the AC50 is 6.51 µM [rising, full curve].

On to `C=C1CC2C3CC[C@@]4(OCOC45COCO5)[C@@]3(C)C(O)CC2[C@@]2(C)CCC(=O)C=C12` (stereo not given in full), for which the cell number change is -3.6%. The AC50 under setting [1] was 16.4 µM [falling, partial curve].

With `CN(c1ccc(C(=O)N2CCOCC2)cc1)S(=O)(=O)c1ccc(Cl)cc1`, the cell number change came to 4.8%. For the same compound, under setting [1], the AC50 was 0.326 µM [rising, partial curve, poor fit].

As for `COC(=O)c1cc2ccsc2n1CC(=O)Nc1cc(C)cc(C)c1`, the cell number change turned out to be 144%. Also, the AC50 under setting [2] was 20.6 µM [rising, single point].

With `CC(=O)Nc1ccc(S(=O)(=O)NCCc2csc(-c3cccnc3)n2)cc1`, the cell number change stood at 0.289%. Moreover, under setting [1], the AC50 is 0.082 µM [rising, full curve, poor fit].

As to `COc1cccc(CSc2nc3cc4c(cc3cc2C)OCCO4)c1`, the cell number change worked out at 1.67%. In addition, under setting [1], the AC50 is 18.4 µM [rising, single point].

With `CCN(C(=O)CSc1nc(C2CC2)n(-c2ccccc2)n1)C1CCS(=O)(=O)C1` (stereo not given), the cell number change stood at 33%. Further, the AC50 under setting [2] was 6.51 µM [rising, full curve, poor fit].

With `CCOC(=O)c1c(N)c(C#N)nn1-c1ccccc1C(=O)OC`, the AC50 was 1.16 µM [rising, partial curve] under setting [2] and 1.3 µM [rising, partial curve] under setting [1].

Consider `Cc1cccc(N2C(=O)C3CCC(c4ccccc4)CC3C2=O)c1` (stereo not given), for which the cell number change was found to be 16.1%. For the same compound, the AC50 under setting [1] was 11.6 µM [rising, partial curve, poor fit].

Regarding `COc1ccc(CCN2CC(C(=O)NCCCn3nc(C)cc3C)CCC2=O)cc1` (stereo not given), the cell number change stood at 65%. Further, the AC50 under setting [2] was 29.1 µM [rising, single point]. In addition, the AC50 under setting [1] was 0.116 µM [falling, single point].

As to `CCCCNC(=O)Nc1ccccn1`, the cell number change was found to be 22.1%. Besides, the AC50 under setting [2] was 4.11 µM [rising, full curve, poor fit]. Moreover, the AC50 under setting [1] was 6.51 µM [rising, single point].

In the case of `CSc1oc(-c2ccco2)nc1S(=O)(=O)c1ccc(C)cc1`, the cell number change was -7.14%.

For `COc1cc(S(=O)(=O)N2CCOCC2)cc(C(=O)OCC(=O)NC2CCCCC2)c1OC`, the cell number change was determined as 35.4%. Besides, the AC50 under setting [2] was 29.1 µM [rising, single point]. Also, the AC50 under setting [1] was 29.1 µM [rising, single point].

For the compound `CCCC12CN3CC(C)(CN(C1)C31C(=O)Nc3ccc(C)cc31)C2=O` (stereo not given), the cell number change stood at 13.7%. Under setting [1], the AC50 is 7.31 µM [rising, partial curve].

On to `CCC(C)[C@H](NC(=O)Nc1cccc(OC)c1)C(=O)OC` (stereo not given in full), for which the cell number change was -5.77%. Besides, under setting [1], the AC50 was 0.116 µM [falling, single point].

With `CCOc1ccc(/C=N/NC(=O)c2cc(-c3ccco3)nc3ccccc23)cc1`, the cell number change was -55.3%. Besides, the AC50 under setting [2] was 29.1 µM [falling, single point].

Consider `CC1=CC(C)(C)N2C(=O)C3(C(C#N)=C(N)Oc4cc(O)ccc43)c3c(C)c(C)cc1c32` (stereo not given), for which the cell number change is -46.3%. In addition, under setting [2], the concentration at half-maximal activity (AC50) was 29.1 µM [falling, single point].

Take `O=C(NC(=S)Nc1ccc(N2CCOCC2)c(Cl)c1)c1cccs1`: the cell number change was -14.1%. Under setting [1], the AC50 is 0.231 µM [falling, full curve, poor fit].

As for `N#Cc1cnn(-c2nc3sc4c(c3c(=O)[nH]2)CCCC4)c1N`, the cell number change was -31.6%. For the same compound, under setting [2], the AC50 is 0.731 µM [falling, full curve]. Moreover, under setting [1], the AC50 is 18.4 µM [falling, partial curve].

Consider `O=C1NC2(CCC3(CC2)OCCO3)NN1c1ccc(Cl)cc1`, for which the cell number change came out at 62.6%. Also, the AC50 under setting [2] is 29.1 µM [rising, single point].

Turning to `CN1CCN(C(=O)c2ccccc2-c2nc(-c3ccccc3)no2)CC1`, the cell number change turned out to be 42.4%. For the same compound, the AC50 under setting [2] is 29.1 µM [rising, single point]. Besides, under setting [1], the AC50 was 0.517 µM [falling, partial curve, poor fit].

On to `CCN(CC)C(=O)NCc1c(C)cc(C)cc1C`, for which the cell number change stood at 3.54%.

For `CCOC(=O)c1[nH]c2ccccc2c1NC(=O)COC`, the cell number change amounted to 15.5%. For the same compound, under setting [2], the concentration at half-maximal activity (AC50) was 4.11 µM [rising, single point]. Further, under setting [1], the AC50 is 0.103 µM [falling, single point].

As for `CCOC(=O)C1=C(C)NC2=C(C(=O)C(C(=O)OCC)C(c3ccco3)C2)C1c1ccccn1` (stereo not given), the cell number change is 3.7%. The AC50 under setting [1] was 5.8 µM [rising, partial curve].

`COc1ccc(C(=O)Oc2cccc(/C=N/NC(N)=S)c2)cc1`: the cell number change stood at 15.3%. For the same compound, the AC50 under setting [1] was 6.51 µM [falling, single point].

`COc1cccc(NC(=O)Nc2cc(NC(=O)Nc3cccc(OC)c3)c(C)nc2C)c1`: the cell number change was -2.97%. Besides, the AC50 under setting [1] is 0.651 µM [falling, single point].

Consider `C=CCC(C)(NCc1ccccc1)c1ccccc1` (stereo not given), for which the cell number change was -9.41%. The AC50 under setting [2] is 6.51 µM [falling, single point]. The AC50 under setting [1] is 3.26 µM [falling, single point].

In the case of `CCCOC(=O)Nc1nnc(CCC)s1`, the cell number change was 23.6%.

Turning to `CC(C)c1ccccc1OCCCCCNCCO`, the AC50 under setting [1] is 14.6 µM [falling, single point].

For the compound `CC(NC(=O)COC(=O)c1ccco1)c1ccccc1` (stereo not given), the cell number change amounted to 16.3%. The AC50 under setting [2] was 2.06 µM [falling, partial curve, poor fit]. Moreover, under setting [1], the AC50 is 1.03 µM [falling, partial curve].

As to `CCN(CC(=O)Nc1ccc(NC(C)=O)cc1)C(=O)c1ccc(COc2ccccc2)o1`, the cell number change was -17.7%. Also, the AC50 under setting [1] is 4.11 µM [falling, partial curve].

With `COC(=O)CC(NC(=O)c1ccc(C)cc1)c1ccccc1` (stereo not given), the cell number change was 33.1%. Besides, the AC50 under setting [2] is 29.1 µM [rising, single point].

Turning to `CCC(=O)Nc1ccc(-c2ccc(N3CCC(C)CC3)nn2)cc1`, the cell number change is -26.1%. Further, the AC50 under setting [1] was 3.66 µM [rising, single point].

With `CCCCn1c(N)c(N(CCOC)C(=O)c2ccc(N3CCCC3)c([N+](=O)[O-])c2)c(=O)[nH]c1=O`, the cell number change is -17.8%. Further, under setting [2], the AC50 was 0.13 µM [falling, full curve, poor fit].

As for `CSCCC(NS(=O)(=O)c1ccc2c(c1)OCCO2)C(=O)N(C)Cc1ccc(F)cc1` (stereo not given), the cell number change was 13.3%. In addition, the AC50 under setting [1] was 0.0184 µM [rising, single point].

Turning to `Cc1ccc(S(=O)(=O)NCCC2=CCCCC2)cc1`, the cell number change worked out at 32.7%. Under setting [2], the AC50 is 14.6 µM [rising, single point].

Turning to `CC(C)c1ccc(CN2CCN(C(=O)CCl)CC2)cc1`, the cell number change was found to be 6.97%.

With `Nc1ncnc2c1nc(N1CCCCC1)n2[C@@H]1O[C@H](CO)[C@@H](O)[C@H]1O`, the cell number change came out at 12%. For the same compound, the concentration at half-maximal activity (AC50) under setting [1] is 0.00411 µM [falling, full curve, poor fit].

Consider `O=C(NNc1c2ccccc2nc2ccccc12)c1ccccc1Cl`, for which the cell number change was -20.2%.

Take `O=C(c1cc2cc(Br)ccc2oc1=O)N1CCCC1`: the cell number change is -79.4%. For the same compound, the AC50 under setting [2] is 25.9 µM [falling, partial curve]. In addition, the AC50 under setting [1] is 0.206 µM [falling, full curve, poor fit].

`COc1ccc(O)c(/C=N/NC(=S)NCCc2ccccc2)c1`: the cell number change is -4.05%.

As for `Cc1nn(CC(=O)O)c(C)c1NC(=O)c1cccs1`, the cell number change is 18.3%.

On to `O=C(c1ccc(S(=O)(=O)N2CCCCC2)cc1)c1nnc(-c2ccc(Cl)cc2)o1`, for which the cell number change was -37.3%. In addition, the AC50 under setting [2] is 0.731 µM [falling, full curve]. Also, under setting [1], the AC50 was 29.1 µM [falling, single point].

As a reminder, the AC50 is the concentration giving half of the maximal activity seen. Higher therefore signals activity only at high concentration.
